These are yes or no findings as the source states them, for the method shown. In cells and extracts the contact can be indirect. Some entries that bind do so weakly or less than the wild type. Where a sequence is shown, tags or fusion partners need not be part of it.
Experiments:
ABCB4-YFP (Arabidopsis) = target: T1, ABCB4-YFP (Arabidopsis) (UniProt O80725); assay: FRET or BRET
T1 sequence: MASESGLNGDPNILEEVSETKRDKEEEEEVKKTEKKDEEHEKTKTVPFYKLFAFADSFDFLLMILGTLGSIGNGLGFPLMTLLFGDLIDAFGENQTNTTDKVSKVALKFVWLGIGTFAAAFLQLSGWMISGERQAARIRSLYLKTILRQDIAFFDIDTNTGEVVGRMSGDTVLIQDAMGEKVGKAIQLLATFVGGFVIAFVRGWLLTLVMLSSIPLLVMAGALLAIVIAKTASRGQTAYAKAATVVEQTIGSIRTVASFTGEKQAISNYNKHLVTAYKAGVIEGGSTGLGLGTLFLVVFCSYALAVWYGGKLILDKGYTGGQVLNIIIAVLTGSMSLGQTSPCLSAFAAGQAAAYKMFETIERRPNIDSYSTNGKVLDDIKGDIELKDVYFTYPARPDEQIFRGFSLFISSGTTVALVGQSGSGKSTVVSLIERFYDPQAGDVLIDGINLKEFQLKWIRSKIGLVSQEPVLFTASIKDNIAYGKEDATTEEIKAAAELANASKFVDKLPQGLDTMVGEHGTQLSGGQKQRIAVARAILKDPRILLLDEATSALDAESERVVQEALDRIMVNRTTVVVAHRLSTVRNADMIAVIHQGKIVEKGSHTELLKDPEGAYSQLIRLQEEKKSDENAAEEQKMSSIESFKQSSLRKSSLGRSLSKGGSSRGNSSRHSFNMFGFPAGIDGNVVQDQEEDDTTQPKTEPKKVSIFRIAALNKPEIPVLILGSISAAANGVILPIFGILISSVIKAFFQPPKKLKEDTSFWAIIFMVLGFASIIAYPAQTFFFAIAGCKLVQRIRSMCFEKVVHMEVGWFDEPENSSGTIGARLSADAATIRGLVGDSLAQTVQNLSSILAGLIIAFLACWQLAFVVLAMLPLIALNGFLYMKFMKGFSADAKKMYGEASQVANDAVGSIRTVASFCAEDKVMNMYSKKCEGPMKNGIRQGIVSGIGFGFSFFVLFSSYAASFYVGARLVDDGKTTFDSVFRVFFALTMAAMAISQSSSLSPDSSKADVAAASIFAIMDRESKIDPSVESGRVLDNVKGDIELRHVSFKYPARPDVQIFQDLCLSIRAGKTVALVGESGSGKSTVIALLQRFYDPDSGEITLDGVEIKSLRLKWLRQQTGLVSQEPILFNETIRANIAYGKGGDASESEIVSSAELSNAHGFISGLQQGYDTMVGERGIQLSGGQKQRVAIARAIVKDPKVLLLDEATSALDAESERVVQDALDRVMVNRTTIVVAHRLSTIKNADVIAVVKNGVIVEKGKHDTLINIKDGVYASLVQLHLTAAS

By UniProt entry, the sequences of proteins in these tests, tags left out. Where a name states a change or a piece, a line headed by the entry shows the natural chain unless it says otherwise.
UniProt Q9C7F2: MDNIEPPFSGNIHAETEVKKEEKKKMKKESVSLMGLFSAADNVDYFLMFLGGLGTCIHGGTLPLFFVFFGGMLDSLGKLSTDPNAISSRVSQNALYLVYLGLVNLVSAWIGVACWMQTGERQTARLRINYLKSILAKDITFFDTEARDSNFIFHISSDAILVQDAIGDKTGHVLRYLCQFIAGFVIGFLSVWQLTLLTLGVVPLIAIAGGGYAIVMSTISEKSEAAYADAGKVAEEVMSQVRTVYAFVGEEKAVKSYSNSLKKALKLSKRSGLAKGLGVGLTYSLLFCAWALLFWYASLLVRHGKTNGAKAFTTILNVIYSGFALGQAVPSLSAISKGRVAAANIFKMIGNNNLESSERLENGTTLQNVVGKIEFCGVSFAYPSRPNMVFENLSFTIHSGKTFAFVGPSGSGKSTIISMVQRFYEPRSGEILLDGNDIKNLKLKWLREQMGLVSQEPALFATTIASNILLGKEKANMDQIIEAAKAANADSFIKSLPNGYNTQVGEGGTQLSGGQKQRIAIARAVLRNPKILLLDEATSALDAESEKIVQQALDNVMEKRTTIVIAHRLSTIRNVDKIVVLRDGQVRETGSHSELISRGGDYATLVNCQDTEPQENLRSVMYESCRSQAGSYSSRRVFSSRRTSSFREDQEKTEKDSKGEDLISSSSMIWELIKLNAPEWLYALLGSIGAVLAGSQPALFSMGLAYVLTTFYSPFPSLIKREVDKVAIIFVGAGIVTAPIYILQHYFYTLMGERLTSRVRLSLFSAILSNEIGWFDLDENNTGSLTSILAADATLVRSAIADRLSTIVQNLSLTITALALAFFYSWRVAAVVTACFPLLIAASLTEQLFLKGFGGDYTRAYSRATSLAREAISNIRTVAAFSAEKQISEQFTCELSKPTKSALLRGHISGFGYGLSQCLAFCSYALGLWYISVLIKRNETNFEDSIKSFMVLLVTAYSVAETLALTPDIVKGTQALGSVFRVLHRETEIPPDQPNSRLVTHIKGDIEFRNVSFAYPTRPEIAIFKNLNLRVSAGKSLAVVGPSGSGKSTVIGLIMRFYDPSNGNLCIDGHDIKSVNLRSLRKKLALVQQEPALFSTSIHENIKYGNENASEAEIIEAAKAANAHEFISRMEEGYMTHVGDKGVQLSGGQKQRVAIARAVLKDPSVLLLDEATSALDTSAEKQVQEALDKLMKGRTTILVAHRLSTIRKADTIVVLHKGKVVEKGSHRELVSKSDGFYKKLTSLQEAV

[1] = target: ABCB14-GFP P990E (Arabidopsis) (UniProt Q9C7F2); assay: FRET or BRET
AUX1-YFP (Arabidopsis) = target: T2, AUX1-YFP (Arabidopsis) (UniProt Q96247); assay: FRET or BRET
T2 sequence: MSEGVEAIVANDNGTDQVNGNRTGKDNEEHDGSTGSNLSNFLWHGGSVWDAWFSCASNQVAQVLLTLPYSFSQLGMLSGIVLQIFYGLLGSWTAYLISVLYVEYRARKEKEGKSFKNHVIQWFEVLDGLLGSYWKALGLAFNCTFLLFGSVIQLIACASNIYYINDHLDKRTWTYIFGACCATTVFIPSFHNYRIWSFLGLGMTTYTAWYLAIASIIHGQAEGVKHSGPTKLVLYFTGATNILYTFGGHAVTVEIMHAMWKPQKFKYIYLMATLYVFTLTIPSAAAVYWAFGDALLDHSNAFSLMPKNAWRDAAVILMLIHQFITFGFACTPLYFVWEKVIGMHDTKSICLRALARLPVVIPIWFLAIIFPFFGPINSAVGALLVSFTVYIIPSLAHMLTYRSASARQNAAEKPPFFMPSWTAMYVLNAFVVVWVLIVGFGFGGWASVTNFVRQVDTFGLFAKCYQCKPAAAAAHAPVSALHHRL

ABCB14-GFP (Arabidopsis) [2] = target: ABCB14-GFP (Arabidopsis) (UniProt Q9C7F2); assay: FRET or BRET
[3] = target: ABCB14-GFP P990E (Arabidopsis) (UniProt Q9C7F2); assay: co-IP
ABCB14-GFP (Arabidopsis) [4] = target: ABCB14-GFP (Arabidopsis) (UniProt Q9C7F2); assay: co-IP

B1: TWD1-Rluc (natural protein)
chain: MDESLEHQTQTHDQESEIVTEGSAVVHSEPSQEGNVPPKVDSEAEVLDEKVSKQIIKEGHGSKPSKYSTCFLHYRAWTKNSQHKFEDTWHEQQPIELVLGKEKKELAGLAIGVASMKSGERALVHVGWELAYGKEGNFSFPNVPPMADLLYEVEVIGFDETKEGKARSDMTVEERIGAADRRKMDGNSLFKEEKLEEAMQQYEMAIAYMGDDFMFQLYGKYQDMALAVKNPCHLNIAACLIKLKRYDEAIGHCNIVLTEEEKNPKALFRRGKAKAELGQMDSARDDFRKAQKYAPDDKAIRRELRALAEQEKALYQKQKEMYKGIFKGKDEGGAKSKSLFWLIVLWQWFVSLFSRIFRRHRVKAD
For B1, the binding (ABCB4-YFP (Arabidopsis)) was “binds”, the binding [1] was “no binding” and the binding (AUX1-YFP (Arabidopsis)) was “no binding”. For the same binder, the binding (ABCB14-GFP (Arabidopsis) [2]) was “no binding”, the binding [3] was “no binding” and the binding (ABCB14-GFP (Arabidopsis) [4]) was “no binding”.
